These are yes or no findings as the source states them, for the method shown. Binding seen in cells or lysates may run through a third protein. Some results given as binding are weak or reduced against the parent protein; the word gives no strength.
What was measured:
[1] = target: parkin (rat (endogenous in Sprague Dawley rat striatum)) (UniProt Q9JK66); experiment: co-IP; Dynabeads with anti-parkin (Prk8) or anti-VMAT2 (NBP1-69750H) antibody, incubated 12 h at 4 °C with rat striatal synaptosomal fractions (100-200 µg), washed three times with PBS 0.02% Tween-20; blot for CDCrel-1; rats untreated, or saline or binge METH (4 x 8 mg/kg) and killed 1 h later
[2] = target: vesicular monoamine transporter-2 (VMAT2) (rat (endogenous in Sprague Dawley rat striatum)) (UniProt Q01827); experiment: as above

The chains behind the UniProt entries cited, without tags or fusion partners.
UniProt Q9JK66: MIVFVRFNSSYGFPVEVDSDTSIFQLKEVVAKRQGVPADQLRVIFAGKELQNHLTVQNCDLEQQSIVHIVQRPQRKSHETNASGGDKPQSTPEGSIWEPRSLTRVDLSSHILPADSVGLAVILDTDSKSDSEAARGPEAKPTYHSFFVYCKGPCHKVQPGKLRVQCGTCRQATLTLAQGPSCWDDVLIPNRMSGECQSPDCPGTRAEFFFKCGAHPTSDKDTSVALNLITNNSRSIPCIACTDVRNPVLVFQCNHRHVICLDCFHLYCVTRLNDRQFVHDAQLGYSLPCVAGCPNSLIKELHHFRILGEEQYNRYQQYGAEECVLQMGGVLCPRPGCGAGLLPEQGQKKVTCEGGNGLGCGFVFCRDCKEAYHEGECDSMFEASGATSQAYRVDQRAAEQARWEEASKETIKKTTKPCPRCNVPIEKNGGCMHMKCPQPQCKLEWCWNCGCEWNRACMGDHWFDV
UniProt Q01827: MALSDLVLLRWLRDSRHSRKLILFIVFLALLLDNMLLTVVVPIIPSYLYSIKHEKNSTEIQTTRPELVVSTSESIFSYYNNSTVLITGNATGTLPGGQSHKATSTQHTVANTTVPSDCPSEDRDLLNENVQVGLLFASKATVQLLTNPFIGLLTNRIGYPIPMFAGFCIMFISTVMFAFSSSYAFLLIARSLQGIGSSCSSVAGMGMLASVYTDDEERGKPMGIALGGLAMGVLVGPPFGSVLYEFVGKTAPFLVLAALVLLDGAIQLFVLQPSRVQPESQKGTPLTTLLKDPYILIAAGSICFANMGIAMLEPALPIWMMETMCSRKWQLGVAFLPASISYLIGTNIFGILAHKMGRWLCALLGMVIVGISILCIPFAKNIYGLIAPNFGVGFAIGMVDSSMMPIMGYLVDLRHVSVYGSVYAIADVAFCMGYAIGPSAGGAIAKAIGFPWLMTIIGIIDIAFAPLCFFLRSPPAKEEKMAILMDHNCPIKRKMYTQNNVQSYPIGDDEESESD

B1: cell division cycle related-1 (CDCrel-1) (protein, UniProt Q9JJM9 1-369)
chain: MSTGLRYKSKLATPEDKQDIDKQYVGFATLPNQVHRKSVKKGFDFTLMVAGESGLGKSTLVHSLFLTDLYKDRKLLSAEERINQTVEILKHTVDIEEKGVKLKLTIVDTPGFGDAVNNFECWKPITDYVDQQFEQYFRDESGLNRKNIQDNRVHCCLYFISPFGHGLRPVDVGFMKALHEKVNIVPLIAKADCLVPSEIRKLKDRIREEIDKFGIHVYQFPECDSDEDEDFKQQDRELKESAPFAVIGSNTVVEAKGQRVRGRLYPWGIVEVENQAHCDFVKLRNMLIRTHMHDLKDVTCDVHYENYRAHCIQQMTSKLTQDSRMESPIPILPLPTPDSETEKLIRMKDEELRRMQEMLQKMKQRMQDQ
binding [1]: binds weakly | binding [2]: binds

Reference: paper PMC11642102
